Reference: PubChem BioAssay AID1224830 (NIAID, 2016)
This is an unselected part of about 18,000 reagents. Of all reagents, about 2,900 (16%) were called active. 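Calls are made per well; low scores hint the gene aids the LPS response, high scores that it dampens it.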 Repeated entries: four replicate wells of each siRNA pool.

Aim: 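Host factors that control LPS-induced TNF expression in human macrophages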 (primary screen)
Cells: human THP-1 monocytic leukaemia cells, TNF dual-luciferase reporter clone, PMA-differentiated to macrophage-like cells
Reagents: siRNA pool against human genes, 50 nM
Time to read-out: LPS for 4 h, given about 3 days after siRNA transfection
Challenge: bacterial LPS (TLR4 ligand), 10 ng/ml
Detection: 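TNF firefly reporter luminescence divided by renilla, normalised to the plate median, then turned into a robust z-score for each replicate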
Direction: TNF reporter robust z-score: higher = stronger TNF reporter response to LPS
Rule for the call: 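Each well counts as active if its z-score is over 2.8 or under -1.5; controls are left without a call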

gene | TNF reporter robust z-score | Outcome
FASTKD2 (GeneID 22868) | 1.47 | inactive
FASTKD2 (GeneID 22868) | 1.43 | inactive
FASTKD2 (GeneID 22868) | 0.3 | inactive
FASTKD2 (GeneID 22868) | 0.29 | inactive
GIMAP6 (GeneID 474344) | -0.38 | inactive
GIMAP6 (GeneID 474344) | -0.24 | inactive
GIMAP6 (GeneID 474344) | -0.5 | inactive
GIMAP6 (GeneID 474344) | 0.65 | inactive
SLC2A14 (GeneID 144195) | -1.05 | inactive
SLC2A14 (GeneID 144195) | -0.85 | inactive
SLC2A14 (GeneID 144195) | -0.95 | inactive
SLC2A14 (GeneID 144195) | -0.54 | inactive
XRCC1 (GeneID 7515) | 1.31 | inactive
XRCC1 (GeneID 7515) | 0.84 | inactive
XRCC1 (GeneID 7515) | -0.48 | inactive
XRCC1 (GeneID 7515) | -0.42 | inactive
SELENOP (GeneID 6414) | 0.29 | inactive
SELENOP (GeneID 6414) | 0.58 | inactive
SELENOP (GeneID 6414) | -0.46 | inactive
SELENOP (GeneID 6414) | 1.36 | inactive
TCTA (GeneID 6988) | -0.04 | inactive
TCTA (GeneID 6988) | 0.92 | inactive
TCTA (GeneID 6988) | -0.68 | inactive
TCTA (GeneID 6988) | -0.56 | inactive
SHPRH (GeneID 257218) | -0.51 | inactive
SHPRH (GeneID 257218) | -0.02 | inactive
SHPRH (GeneID 257218) | 0.33 | inactive
SHPRH (GeneID 257218) | 0.47 | inactive
DLEC1 (GeneID 9940) | 2.13 | inactive
DLEC1 (GeneID 9940) | 0.44 | inactive
DLEC1 (GeneID 9940) | 0.13 | inactive
DLEC1 (GeneID 9940) | 1.83 | inactive
CLBA1 (GeneID 122616) | -0.72 | inactive
CLBA1 (GeneID 122616) | -1 | inactive
CLBA1 (GeneID 122616) | -0.28 | inactive
CLBA1 (GeneID 122616) | -0.6 | inactive
GIGYF1 (GeneID 64599) | 0.89 | inactive
GIGYF1 (GeneID 64599) | 0.75 | inactive
GIGYF1 (GeneID 64599) | 0.9 | inactive
GIGYF1 (GeneID 64599) | 1.26 | inactive
MTHFD2L (GeneID 441024) | 0.21 | inactive
MTHFD2L (GeneID 441024) | 1.02 | inactive
MTHFD2L (GeneID 441024) | 0.46 | inactive
MTHFD2L (GeneID 441024) | 1.48 | inactive
AP5B1 (GeneID 91056) | 1.34 | inactive
AP5B1 (GeneID 91056) | -0.26 | inactive
AP5B1 (GeneID 91056) | 0.01 | inactive
AP5B1 (GeneID 91056) | 0.54 | inactive
ZNF484 (GeneID 83744) | -0.58 | inactive
ZNF484 (GeneID 83744) | -0.97 | inactive
ZNF484 (GeneID 83744) | -0.55 | inactive
ZNF484 (GeneID 83744) | -0.07 | inactive
ST8SIA3 (GeneID 51046) | -1.05 | inactive
ST8SIA3 (GeneID 51046) | -1.17 | inactive
ST8SIA3 (GeneID 51046) | -0.42 | inactive
SKA1 (GeneID 220134) | 0.62 | inactive
SKA1 (GeneID 220134) | 2.21 | inactive
SKA1 (GeneID 220134) | 0.82 | inactive
SKA1 (GeneID 220134) | 0.9 | inactive
MCM4 (GeneID 4173) | -0.9 | inactive
MCM4 (GeneID 4173) | -0.32 | inactive
MCM4 (GeneID 4173) | -0.46 | inactive
MCM4 (GeneID 4173) | -0.49 | inactive
RASGRF2 (GeneID 5924) | -1.12 | inactive
RASGRF2 (GeneID 5924) | -0.74 | inactive
RASGRF2 (GeneID 5924) | 0.53 | inactive
RASGRF2 (GeneID 5924) | 1.06 | inactive

Continued (3 carried over from the part before).
gene | TNF reporter robust z-score | Outcome
RASGRF2 (GeneID 5924) | -0.74 | inactive
RASGRF2 (GeneID 5924) | 0.53 | inactive
RASGRF2 (GeneID 5924) | 1.06 | inactive
GJC2 (GeneID 57165) | -0.53 | inactive
GJC2 (GeneID 57165) | -0.76 | inactive
GJC2 (GeneID 57165) | -1.43 | inactive
GJC2 (GeneID 57165) | -1.48 | inactive
TRIM51EP (GeneID 399940) | 0.7 | inactive
TRIM51EP (GeneID 399940) | 0.82 | inactive
TRIM51EP (GeneID 399940) | -0.49 | inactive
TRIM51EP (GeneID 399940) | -0.12 | inactive
STING1 (GeneID 340061) | 0.74 | inactive
STING1 (GeneID 340061) | -0.21 | inactive
STING1 (GeneID 340061) | -0.5 | inactive
STING1 (GeneID 340061) | 0.5 | inactive
MCCC2 (GeneID 64087) | -0.89 | inactive
MCCC2 (GeneID 64087) | -0.73 | inactive
MCCC2 (GeneID 64087) | -0.54 | inactive
MCCC2 (GeneID 64087) | 0.1 | inactive
MEFV (GeneID 4210) | -1.33 | inactive
MEFV (GeneID 4210) | -1.46 | inactive
MEFV (GeneID 4210) | -0.2 | inactive
MEFV (GeneID 4210) | -1 | inactive
MAP2K2 (GeneID 5605) | 2.66 | inactive
MAP2K2 (GeneID 5605) | 2.68 | inactive
MAP2K2 (GeneID 5605) | 2.58 | inactive
MAP2K2 (GeneID 5605) | 5 | active
LENEP (GeneID 55891) | 1.2 | inactive
LENEP (GeneID 55891) | 1.26 | inactive
LENEP (GeneID 55891) | 0.47 | inactive
LENEP (GeneID 55891) | 0.85 | inactive
TMEM108 (GeneID 66000) | -0.4 | inactive
TMEM108 (GeneID 66000) | -0.33 | inactive
TMEM108 (GeneID 66000) | -0.21 | inactive
TMEM108 (GeneID 66000) | 0.54 | inactive
ZHX2 (GeneID 22882) | 0.94 | inactive
ZHX2 (GeneID 22882) | 0.98 | inactive
ZHX2 (GeneID 22882) | 1.07 | inactive
ZHX2 (GeneID 22882) | 0.83 | inactive
PCYT1A (GeneID 5130) | -0.55 | inactive
PCYT1A (GeneID 5130) | 1.17 | inactive
PCYT1A (GeneID 5130) | 0.99 | inactive
PCYT1A (GeneID 5130) | 0.32 | inactive
VDAC1 (GeneID 7416) | -0.15 | inactive
VDAC1 (GeneID 7416) | 1.96 | inactive
VDAC1 (GeneID 7416) | 1.09 | inactive
VDAC1 (GeneID 7416) | 1.27 | inactive
LPXN (GeneID 9404) | -2.33 | active
LPXN (GeneID 9404) | 0.12 | inactive
LPXN (GeneID 9404) | -1.05 | inactive
LPXN (GeneID 9404) | -0.35 | inactive
RPL26L1 (GeneID 51121) | -1.13 | inactive
RPL26L1 (GeneID 51121) | -1.61 | active
RPL26L1 (GeneID 51121) | -1.73 | active
RPL26L1 (GeneID 51121) | -0.6 | inactive
NFKBIE (GeneID 4794) | -2.13 | active
NFKBIE (GeneID 4794) | -1.88 | active
NFKBIE (GeneID 4794) | -2.03 | active
NFKBIE (GeneID 4794) | -1.58 | active
RNF24 (GeneID 11237) | 0.73 | inactive
RNF24 (GeneID 11237) | 1.22 | inactive
RNF24 (GeneID 11237) | 1.28 | inactive
RNF24 (GeneID 11237) | -1.12 | inactive
ADH1A (GeneID 124) | 0.29 | inactive
ADH1A (GeneID 124) | 1.54 | inactive
ADH1A (GeneID 124) | 1.36 | inactive
ADH1A (GeneID 124) | 1.27 | inactive
C7 (GeneID 730) | -1.17 | inactive
C7 (GeneID 730) | 0.37 | inactive
C7 (GeneID 730) | -0.31 | inactive
C7 (GeneID 730) | 0.4 | inactive
KCNA1 (GeneID 3736) | 0.67 | inactive
KCNA1 (GeneID 3736) | -0.18 | inactive
KCNA1 (GeneID 3736) | -1.21 | inactive
KCNA1 (GeneID 3736) | -0.65 | inactive
VEZT (GeneID 55591) | -1 | inactive
VEZT (GeneID 55591) | 0.95 | inactive
VEZT (GeneID 55591) | -1.12 | inactive
VEZT (GeneID 55591) | -0.4 | inactive
